Measured values published in patent US11345676B2, “Apoptosis signal-regulating kinase 1 (ASK 1) inhibitor compounds” (PHARMAKEA, INC., priority 2017, dated 2022).

Sequences of proteins named here, by UniProt entry; tags and fusion partners are left off. Residues count along the entry.
UniProt Q99683, 649-946 limits assumed: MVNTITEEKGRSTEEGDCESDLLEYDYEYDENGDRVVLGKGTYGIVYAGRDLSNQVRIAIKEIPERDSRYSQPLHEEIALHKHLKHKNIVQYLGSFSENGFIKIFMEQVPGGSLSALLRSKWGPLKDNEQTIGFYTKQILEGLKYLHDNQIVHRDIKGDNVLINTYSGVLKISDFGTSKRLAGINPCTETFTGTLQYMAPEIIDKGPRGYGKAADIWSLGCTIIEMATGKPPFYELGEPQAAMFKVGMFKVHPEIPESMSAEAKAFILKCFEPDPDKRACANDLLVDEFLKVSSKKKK

Biological target: ASK1 (Homo sapiens (Human), UniProt Q99683)
Assay: Human ASK1 ADP-Glo kinase assay
Details: recombinant ASK1 (amino acids 649-946), 50 μM ATP, MBP substrate, tested form: HCl
Procedure: Example B-1: Human ASK1 ADP-Glo Assay
The ability of test compounds to inhibit ASK1 kinase activity was determined using the luminescent ADP-Glo™ Kinase Assay and Myelin Basic Protein (MBP) as a substrate (Promega Corporation, Madison, Wis.). During the kinase reaction, ASK1 utilizes ATP and generates ADP. The remaining ATP is then depleted by addition of the ADP-Glo™ reagent which also terminates the reaction. Subsequent addition of the Kinase Detection Reagent converts the ADP that was produced during the kinase reaction to ATP, and this newly synthesized ATP is converted to light using the luciferase/luciferin reactions. The assay was performed according to the manufacturer's instructions. […] Following the addition of the Kinase Detection Reagent, the plate was incubated for an additional 40 min at room temperature before reading luminescence on a FlexStation 3 (Molecular Devices, Sunnyvale, Calif.). Maximum activity was determined from wells treated with vehicle and was set to 100% and minimum activity was determined from wells containing no enzyme and this was set to 0%. Percent inhibition was calculated relative to the controls and the data graphed in Collaborative Drug Discovery (CDD) Vault (Burlingame, Calif.).

Work on `O=C(Nc1ccc(F)c(C(=O)Nc2cccc(-c3nncn3C3CC3)n2)c1)c1ccccc1` yielded an IC50 of less than 300 nM.

The structures given here were assigned with low confidence; some may be wrong.
